This is an account of results in paper PMC7540253, “Sensitive LC-MS/MS Method for the Quantification of Macrocyclic Gαq Protein Inhibitors in Biological Samples” (Frontiers in Chemistry, 2020).

A short description of the data set: Recovery rate of the 3-step liquid-liquid extraction from spiked mouse tissues and plasma. The note with it: organs of non-treated mice (250 mg) or plasma (100 µL) extracted with buffer spiked with 100 nM FR; 3-step LLE, LC-MS/MS; average over tissues, three independent experiments (Figure S2).

With FR900359, the “Recovery rate of extraction” value is ~ 50%.
To YM-254890 belongs “similarly efficient”.
